The list shows a part of the results.
Assays:
Assay in all cases: log2 fold change, soluble protein after heating vs DMSO (PISA); higher = thermal stabilisation; K562 cells, 10 uM, 30 min; active = over 0.2 and 3.5 SD of the protein, either way, in both replicates (recomputed)
[1] = compound: CS(=O)(=O)c1ccc(-c2cnc(N)c(C(=O)Nc3ccccc3)n2)cc1
Procedure, shortened: (§1)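 Soluble protein was defined as the supernatant after 21,000xg for 90 min. It came from K562 cells at 2×10^6 cells/mL given 10 μM compound for 30 min, heated in aliquots for 3 min across 48°C-58°C, pooled, and extracted in PBS with 0.5% NP-40 at 4°C, and was quantified by TMTpro 16plex LC-MS/MS with equalised channel sums. Thermal stability against control samples, from duplicates, is reported as log2 fold change.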

Amino acid sequences for entries named in this document (tags omitted). A change or cut given only in a name is not applied to a line headed by its entry.
UniProt Q9NZ43: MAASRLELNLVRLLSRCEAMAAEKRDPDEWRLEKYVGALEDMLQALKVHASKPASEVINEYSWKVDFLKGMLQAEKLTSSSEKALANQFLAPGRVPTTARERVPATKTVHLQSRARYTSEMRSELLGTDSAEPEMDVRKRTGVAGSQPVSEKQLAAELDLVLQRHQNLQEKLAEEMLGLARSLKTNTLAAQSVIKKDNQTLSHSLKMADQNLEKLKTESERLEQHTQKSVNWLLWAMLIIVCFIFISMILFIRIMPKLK
UniProt O94763, whole entry, looked up: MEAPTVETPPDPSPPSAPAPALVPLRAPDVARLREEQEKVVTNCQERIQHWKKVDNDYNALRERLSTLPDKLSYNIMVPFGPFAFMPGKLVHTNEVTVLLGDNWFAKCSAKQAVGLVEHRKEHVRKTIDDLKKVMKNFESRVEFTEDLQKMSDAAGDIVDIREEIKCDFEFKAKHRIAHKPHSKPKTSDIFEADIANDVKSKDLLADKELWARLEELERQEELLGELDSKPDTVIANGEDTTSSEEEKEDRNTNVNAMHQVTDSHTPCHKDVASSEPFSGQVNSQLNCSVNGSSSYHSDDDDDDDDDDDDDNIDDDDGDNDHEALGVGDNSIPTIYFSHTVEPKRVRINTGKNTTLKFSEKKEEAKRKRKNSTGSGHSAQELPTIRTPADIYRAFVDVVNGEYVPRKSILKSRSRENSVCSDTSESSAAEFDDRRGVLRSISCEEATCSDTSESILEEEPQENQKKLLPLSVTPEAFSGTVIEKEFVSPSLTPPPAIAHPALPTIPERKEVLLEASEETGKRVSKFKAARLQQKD
UniProt Q70CQ3: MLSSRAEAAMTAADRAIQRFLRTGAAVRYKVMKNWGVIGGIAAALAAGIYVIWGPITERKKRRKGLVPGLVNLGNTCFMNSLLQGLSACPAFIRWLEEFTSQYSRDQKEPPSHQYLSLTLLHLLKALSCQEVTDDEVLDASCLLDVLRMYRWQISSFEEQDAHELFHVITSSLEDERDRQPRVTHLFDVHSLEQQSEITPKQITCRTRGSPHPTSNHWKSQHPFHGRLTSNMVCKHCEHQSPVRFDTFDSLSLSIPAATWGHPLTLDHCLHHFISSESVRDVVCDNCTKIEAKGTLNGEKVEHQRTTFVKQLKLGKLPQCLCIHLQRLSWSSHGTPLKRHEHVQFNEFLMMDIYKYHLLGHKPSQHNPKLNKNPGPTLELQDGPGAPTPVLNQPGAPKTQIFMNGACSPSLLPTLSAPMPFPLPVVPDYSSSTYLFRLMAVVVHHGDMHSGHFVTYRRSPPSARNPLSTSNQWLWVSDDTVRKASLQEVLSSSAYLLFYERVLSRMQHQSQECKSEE
UniProt Q9P0L0: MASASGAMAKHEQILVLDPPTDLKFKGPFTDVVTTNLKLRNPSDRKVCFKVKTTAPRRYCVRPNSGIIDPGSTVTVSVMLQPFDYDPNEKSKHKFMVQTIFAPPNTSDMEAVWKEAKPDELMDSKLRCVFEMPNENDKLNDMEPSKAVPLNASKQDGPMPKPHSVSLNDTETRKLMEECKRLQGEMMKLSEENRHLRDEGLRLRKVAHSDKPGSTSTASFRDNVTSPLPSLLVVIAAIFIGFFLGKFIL
UniProt Q6ZT12: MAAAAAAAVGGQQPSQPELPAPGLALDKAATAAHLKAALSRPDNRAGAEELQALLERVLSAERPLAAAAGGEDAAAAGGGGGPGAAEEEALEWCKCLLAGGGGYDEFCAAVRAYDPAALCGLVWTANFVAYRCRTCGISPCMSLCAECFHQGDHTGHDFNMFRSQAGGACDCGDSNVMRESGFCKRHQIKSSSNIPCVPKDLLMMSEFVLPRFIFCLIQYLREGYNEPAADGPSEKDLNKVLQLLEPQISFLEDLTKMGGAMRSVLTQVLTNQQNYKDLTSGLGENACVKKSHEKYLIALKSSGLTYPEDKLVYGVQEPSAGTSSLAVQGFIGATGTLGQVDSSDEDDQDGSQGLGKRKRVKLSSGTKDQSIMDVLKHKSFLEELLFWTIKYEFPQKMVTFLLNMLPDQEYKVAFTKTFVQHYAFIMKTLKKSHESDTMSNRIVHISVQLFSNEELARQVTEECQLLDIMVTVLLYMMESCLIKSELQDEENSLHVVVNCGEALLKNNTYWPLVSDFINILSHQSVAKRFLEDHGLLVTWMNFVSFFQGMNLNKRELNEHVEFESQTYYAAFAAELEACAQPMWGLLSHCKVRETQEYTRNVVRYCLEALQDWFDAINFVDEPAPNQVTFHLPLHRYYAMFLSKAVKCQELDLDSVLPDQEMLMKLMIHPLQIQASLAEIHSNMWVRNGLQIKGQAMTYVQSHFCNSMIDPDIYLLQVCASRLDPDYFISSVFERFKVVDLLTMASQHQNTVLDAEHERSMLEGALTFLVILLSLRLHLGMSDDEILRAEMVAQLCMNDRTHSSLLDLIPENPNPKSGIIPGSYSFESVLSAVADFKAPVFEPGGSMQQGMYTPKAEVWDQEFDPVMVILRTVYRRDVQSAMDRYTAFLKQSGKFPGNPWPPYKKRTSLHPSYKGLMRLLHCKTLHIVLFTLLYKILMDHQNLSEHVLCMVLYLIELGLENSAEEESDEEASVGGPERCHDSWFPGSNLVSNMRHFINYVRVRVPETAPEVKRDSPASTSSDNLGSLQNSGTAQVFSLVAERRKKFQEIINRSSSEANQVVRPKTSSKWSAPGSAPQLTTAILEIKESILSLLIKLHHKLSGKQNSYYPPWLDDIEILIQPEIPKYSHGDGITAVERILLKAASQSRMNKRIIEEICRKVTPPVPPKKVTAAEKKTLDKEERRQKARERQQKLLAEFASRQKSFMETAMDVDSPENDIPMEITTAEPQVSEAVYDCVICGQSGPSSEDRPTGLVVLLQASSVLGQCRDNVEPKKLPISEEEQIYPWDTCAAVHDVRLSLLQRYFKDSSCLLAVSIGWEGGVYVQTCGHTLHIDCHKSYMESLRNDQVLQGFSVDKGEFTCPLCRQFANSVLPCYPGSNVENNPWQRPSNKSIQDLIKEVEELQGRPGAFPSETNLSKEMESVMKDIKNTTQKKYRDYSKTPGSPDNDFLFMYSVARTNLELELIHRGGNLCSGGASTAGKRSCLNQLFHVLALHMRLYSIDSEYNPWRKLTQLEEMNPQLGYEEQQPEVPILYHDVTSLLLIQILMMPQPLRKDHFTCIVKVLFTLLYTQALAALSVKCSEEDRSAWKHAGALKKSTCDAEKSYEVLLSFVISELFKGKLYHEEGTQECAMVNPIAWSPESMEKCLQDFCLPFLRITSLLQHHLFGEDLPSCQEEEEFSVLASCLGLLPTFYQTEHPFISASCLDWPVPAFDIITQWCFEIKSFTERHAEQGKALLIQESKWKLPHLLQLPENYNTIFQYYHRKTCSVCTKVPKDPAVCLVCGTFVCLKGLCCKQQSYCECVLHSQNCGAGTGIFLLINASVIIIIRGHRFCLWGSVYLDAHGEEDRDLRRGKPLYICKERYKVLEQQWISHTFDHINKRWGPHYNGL
UniProt P11441: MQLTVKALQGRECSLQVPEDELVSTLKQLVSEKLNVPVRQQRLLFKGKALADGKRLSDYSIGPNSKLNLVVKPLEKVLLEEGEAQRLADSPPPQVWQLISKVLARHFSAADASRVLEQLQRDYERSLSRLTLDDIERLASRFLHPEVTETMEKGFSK
UniProt Q16880: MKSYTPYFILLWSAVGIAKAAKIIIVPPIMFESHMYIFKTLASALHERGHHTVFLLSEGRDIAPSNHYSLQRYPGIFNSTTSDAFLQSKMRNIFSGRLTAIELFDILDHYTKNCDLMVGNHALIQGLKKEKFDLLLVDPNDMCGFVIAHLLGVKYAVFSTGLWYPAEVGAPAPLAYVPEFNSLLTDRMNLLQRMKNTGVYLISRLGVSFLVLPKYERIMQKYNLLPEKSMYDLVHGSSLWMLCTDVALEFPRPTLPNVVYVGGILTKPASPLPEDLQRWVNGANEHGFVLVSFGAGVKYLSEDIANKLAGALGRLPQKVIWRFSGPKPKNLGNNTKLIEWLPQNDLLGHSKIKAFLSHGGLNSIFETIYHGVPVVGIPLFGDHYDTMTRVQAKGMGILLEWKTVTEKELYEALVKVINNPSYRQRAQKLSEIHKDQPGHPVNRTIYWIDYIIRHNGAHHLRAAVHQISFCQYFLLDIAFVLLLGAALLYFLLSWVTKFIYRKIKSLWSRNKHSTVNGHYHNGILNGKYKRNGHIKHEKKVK
UniProt Q08AM6: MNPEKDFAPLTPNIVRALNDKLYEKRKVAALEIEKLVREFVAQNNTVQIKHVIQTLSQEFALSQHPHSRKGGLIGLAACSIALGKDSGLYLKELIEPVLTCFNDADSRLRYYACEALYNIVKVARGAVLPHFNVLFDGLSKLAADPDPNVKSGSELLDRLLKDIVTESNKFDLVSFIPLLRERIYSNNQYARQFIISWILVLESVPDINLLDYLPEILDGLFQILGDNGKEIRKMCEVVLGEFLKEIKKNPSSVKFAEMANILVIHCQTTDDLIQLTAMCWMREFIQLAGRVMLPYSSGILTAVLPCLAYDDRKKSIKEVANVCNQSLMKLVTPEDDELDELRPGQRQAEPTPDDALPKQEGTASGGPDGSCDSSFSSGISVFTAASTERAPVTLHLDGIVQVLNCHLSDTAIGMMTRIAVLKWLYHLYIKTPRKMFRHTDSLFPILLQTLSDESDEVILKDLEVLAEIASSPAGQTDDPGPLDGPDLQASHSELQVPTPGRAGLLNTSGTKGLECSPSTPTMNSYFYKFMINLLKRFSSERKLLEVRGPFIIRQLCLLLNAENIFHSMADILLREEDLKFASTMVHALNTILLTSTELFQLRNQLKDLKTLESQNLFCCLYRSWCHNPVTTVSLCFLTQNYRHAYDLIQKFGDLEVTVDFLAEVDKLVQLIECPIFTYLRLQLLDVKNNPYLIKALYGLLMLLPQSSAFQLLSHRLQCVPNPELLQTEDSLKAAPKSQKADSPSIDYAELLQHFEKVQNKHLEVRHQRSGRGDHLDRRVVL
UniProt Q8NBZ7: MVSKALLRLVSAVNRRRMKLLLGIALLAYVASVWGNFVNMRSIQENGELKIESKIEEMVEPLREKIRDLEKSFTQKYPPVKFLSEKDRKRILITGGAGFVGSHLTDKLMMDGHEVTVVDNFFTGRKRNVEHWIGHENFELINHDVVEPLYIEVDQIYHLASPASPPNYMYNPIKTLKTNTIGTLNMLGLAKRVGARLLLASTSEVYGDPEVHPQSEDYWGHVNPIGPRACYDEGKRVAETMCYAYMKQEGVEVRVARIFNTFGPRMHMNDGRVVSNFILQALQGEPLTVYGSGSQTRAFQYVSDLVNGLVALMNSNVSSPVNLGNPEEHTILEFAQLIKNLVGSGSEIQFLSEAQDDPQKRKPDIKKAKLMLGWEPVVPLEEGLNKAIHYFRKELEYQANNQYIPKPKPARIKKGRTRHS
UniProt Q9BV40: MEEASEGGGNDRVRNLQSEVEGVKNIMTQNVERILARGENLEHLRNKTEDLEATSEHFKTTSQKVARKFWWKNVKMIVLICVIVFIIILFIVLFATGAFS
UniProt Q15386: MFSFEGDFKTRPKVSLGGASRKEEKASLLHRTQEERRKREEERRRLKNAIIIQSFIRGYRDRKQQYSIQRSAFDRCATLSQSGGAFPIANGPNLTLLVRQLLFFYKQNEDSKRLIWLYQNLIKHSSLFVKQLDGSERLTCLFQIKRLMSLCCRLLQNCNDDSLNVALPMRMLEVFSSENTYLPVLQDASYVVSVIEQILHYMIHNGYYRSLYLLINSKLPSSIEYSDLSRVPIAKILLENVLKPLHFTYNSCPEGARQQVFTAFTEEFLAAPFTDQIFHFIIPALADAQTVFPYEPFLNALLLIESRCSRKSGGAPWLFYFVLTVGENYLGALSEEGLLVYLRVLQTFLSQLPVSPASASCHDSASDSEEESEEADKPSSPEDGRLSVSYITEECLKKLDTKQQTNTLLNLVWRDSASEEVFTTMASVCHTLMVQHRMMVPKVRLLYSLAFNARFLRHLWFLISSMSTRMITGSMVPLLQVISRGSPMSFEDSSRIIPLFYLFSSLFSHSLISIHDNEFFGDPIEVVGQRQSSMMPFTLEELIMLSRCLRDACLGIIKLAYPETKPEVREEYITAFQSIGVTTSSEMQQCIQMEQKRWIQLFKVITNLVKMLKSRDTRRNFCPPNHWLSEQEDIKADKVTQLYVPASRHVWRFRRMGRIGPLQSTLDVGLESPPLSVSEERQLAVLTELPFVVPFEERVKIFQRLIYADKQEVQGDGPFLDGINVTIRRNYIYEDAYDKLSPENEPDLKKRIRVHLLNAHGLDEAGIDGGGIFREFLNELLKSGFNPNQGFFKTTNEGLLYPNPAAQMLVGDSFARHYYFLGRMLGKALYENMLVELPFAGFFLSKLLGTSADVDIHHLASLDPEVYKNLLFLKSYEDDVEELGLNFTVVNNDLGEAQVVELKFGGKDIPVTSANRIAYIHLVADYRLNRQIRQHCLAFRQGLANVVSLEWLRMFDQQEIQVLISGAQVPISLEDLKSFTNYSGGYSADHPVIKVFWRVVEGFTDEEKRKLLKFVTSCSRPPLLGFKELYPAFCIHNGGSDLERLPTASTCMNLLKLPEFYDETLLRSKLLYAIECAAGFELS

[2] = compound: C[C@@H](Oc1cc(-c2cnn(C3CCNCC3)c2)cnc1N)c1c(Cl)ccc(F)c1Cl [crizotinib]
Procedure, shortened: as §1

[3] = compound: C[C@@H]1COCCN1C2=NC(=NC(=C2)C3(CC3)S(=O)(=O)C)C4=C5C=CNC5=CC=C4
Procedure, shortened: as §1

[4] = compound: C[C@H](C1=CC=C(C=C1)C(=O)NC2=C3C=CNC3=NC=C2)N
Procedure, shortened: as §1

[5] = compound: C[C@H](Nc1ncnc2nc[nH]c12)c1cc2cccc(Cl)c2c(=O)n1-c1ccccc1 [duvelisib]
Procedure, shortened: as §1

[6] = compound: Cc1cc(Nc2cc(CN3CCOCC3)c3nc(C)c(Cc4ccc(Cl)cc4F)n3n2)n[nH]1 [gandotinib]
Procedure, shortened: as §1

[7] = compound: Cc1cc(Nc2cc(N3CCN(C)CC3)nc(Sc3ccc(NC(=O)C4CC4)cc3)n2)n[nH]1 [tozasertib]
Procedure, shortened: as §1

[8] = compound: Cc1cc(SCc2sc(-c3ccc(C(F)(F)F)cc3)nc2C)ccc1OCC(=O)O
Procedure, shortened: as §1

[9] = compound: Cc1ccc(-n2nc(C(C)(C)C)cc2NC(=O)Nc2ccc(OCCN3CCOCC3)c3ccccc23)cc1 [doramapimod]
Procedure, shortened: as §1

[10] = compound: Cc1ccc(C(=O)N(CCCN)[C@@H](c2nc3cc(Cl)ccc3c(=O)n2Cc2ccccc2)C(C)C)cc1 [ispinesib]
Procedure, shortened: as §1

Measured: log2 fold change

UCK2 (UniProt Q9BZX2)
inactive: [1] 0.003 | [2] 0.041 | [3] 0.012 | [4] -0.041 | [5] 0.033 | [6] -0.057 | [7] 0.014 | [8] 0.006 | [9] -0.003 | [10] 0.027

UNC93B1 (UniProt Q9H1C4)
inactive: [1] 0.032 | [2] -0.009 | [3] 0.031 | [4] -0.044 | [5] 0.355 | [6] -0.04 | [8] 0.03 | [9] -0.104 | [10] -0.153

USE1 (UniProt Q9NZ43)
inactive: [1] 0 | [2] 0.04 | [3] -0.01 | [4] 0.072 | [5] -0.046 | [6] -0.047 | [7] -0.03 | [8] -0.017 | [9] 0.02 | [10] -0.06

URI1 (UniProt O94763)
inactive: [1] -0.012 | [2] -0.01 | [3] -0.104 | [4] -0.033 | [5] 0.014 | [6] 0.012 | [7] 0.031 | [8] -0.036 | [9] 0.012 | [10] -0.097

USP47 (UniProt Q96K76)
inactive: [1] 0.01 | [2] -0.09 | [3] -0.037 | [4] 0.165 | [5] -0.056 | [6] -0.022 | [7] 0.089 | [8] 0.121 | [9] 0.137 | [10] -0.081

USP30 (UniProt Q70CQ3)
inactive: [1] 0.145 | [2] 0.159 | [3] -0.037 | [4] 0.166 | [5] 0.104 | [7] 0.1 | [8] -0.094 | [9] -0.016 | [10] -0.038

VAPA (UniProt Q9P0L0)
inactive: [1] -0.015 | [2] 0.04 | [3] 0.02 | [4] 0.017 | [5] 0.027 | [6] -0.184 | [7] 0.013 | [8] 0.01 | [9] 0.009 | [10] 0.073

UBR3 isoform 4 (UniProt Q6ZT12)
inactive: [1] 0.012 | [2] -0.319 | [3] 0.021 | [4] 0.113 | [5] -0.143 | [7] 0.097 | [8] 0.211 | [9] -0.11

UQCRQ (UniProt O14949)
inactive: [1] 0.035 | [2] 0.079 | [3] -0.058 | [4] -0.071 | [5] -0.018 | [6] 0.068 | [7] -0.02 | [8] 0.023 | [9] -0.03 | [10] 0.015

UBL4A (UniProt P11441)
inactive: [1] 0.03 | [2] 0.064 | [3] 0.062 | [4] -0.039 | [5] 0.034 | [6] -0.063 | [7] 0.081 | [8] 0.094 | [9] 0.017 | [10] -0.006

UBP1 (UniProt Q9NZI7)
inactive: [1] 0.013 | [2] -0.211 | [3] -0.272 | [4] -0.168 | [5] 0.24 | [7] -0.037 | [8] 0.417 | [9] 0.343 | [10] -0.235

URI1 isoform 4 (UniProt O94763)
inactive: [1] -0.219 | [2] -0.417 | [3] -0.108 | [4] 0.142 | [5] 0.05 | [6] -0.043 | [7] 0.136 | [8] 0.043 | [9] 0.309 | [10] -0.032

UBQLN1 (UniProt Q9UMX0)
inactive: [1] -0.062 | [2] 0.043 | [3] 0.08 | [4] -0.029 | [5] 0.084 | [6] 0.015 | [7] 0.06 | [8] -0.028 | [9] 0.037 | [10] -0.006

UGT8 (UniProt Q16880)
inactive: [1] 0.168 | [2] 0.234 | [3] 0.019 | [4] 0.024 | [5] 0.114 | [6] 0.068 | [7] -0.061 | [8] -0.08 | [9] 0.084 | [10] -0.048

UPRT (UniProt Q96BW1)
inactive: [1] 0.094 | [2] 0.036 | [3] 0.044 | [4] -0.044 | [5] 0.032 | [6] 0.061 | [8] 0.039 | [9] -0.046 | [10] -0.028

VARS (UniProt P26640)
inactive: [1] 0.015 | [2] -0.018 | [3] -0.007 | [4] 0.053 | [5] -0.002 | [6] -0.049 | [7] 0.02 | [8] 0.059 | [9] -0.003 | [10] -0.005

VAC14 (UniProt Q08AM6)
inactive: [1] 0.042 | [2] -0.17 | [3] 0.048 | [4] -0.044 | [5] -0.018 | [6] -0.104 | [7] -0.004 | [8] 0.022 | [9] 0.002 | [10] -0.091

UBFD1 (UniProt O14562)
inactive: [1] 0.026 | [2] -0.008 | [3] 0.026 | [4] -0.104 | [5] 0.017 | [6] -0.04 | [7] -0.002 | [8] 0.015 | [9] 0.023 | [10] 0.033

UXS1 isoform 2 (UniProt Q8NBZ7)
inactive: [1] 0.043 | [2] 0.169 | [3] -0.004 | [4] -0.082 | [5] 0.01 | [7] 0.017 | [8] -0.065 | [9] 0.04 | [10] -0.024

USP32 (UniProt Q8NFA0)
inactive: [1] -0.033 | [2] 0.069 | [3] 0.091 | [4] 0.206 | [5] -0.037 | [6] 0.171 | [7] 0.142 | [8] 0.002 | [9] -0.078 | [10] -0.012

UGGT2 (UniProt Q9NYU1)
inactive: [1] 0.045 | [2] 0.027 | [3] -0.039 | [4] 0.17 | [5] -0.007 | [6] 0.146 | [7] -0.014 | [8] 0.072 | [9] 0.081 | [10] -0.074

UROS (UniProt P10746)
inactive: [1] 0.041 | [2] -0.115 | [3] 0.052 | [4] -0.03 | [5] 0.125 | [6] 0.011 | [7] 0.01 | [8] 0.035 | [9] -0.041 | [10] 0.026

USP22 (UniProt Q9UPT9)
inactive: [1] -0.017 | [2] -0.021 | [3] 0.077 | [4] 0.042 | [5] -0.072 | [7] -0.056 | [8] 0.06 | [9] -0.184

UGCG (UniProt Q16739)
inactive: [1] 0.152 | [2] 0.126 | [3] -0.055 | [4] -0.051 | [5] -0.226 | [7] 0.099 | [8] 0.098 | [9] -0.015 | [10] 0.267

VAMP8 (UniProt Q9BV40)
inactive: [1] 0.022 | [2] 0.026 | [3] 0.094 | [4] -0.076 | [5] 0.038 | [6] 0.067 | [7] -0.039 | [8] -0.05 | [9] -0.046 | [10] -0.141

VCP (UniProt P55072)
inactive: [1] -0.005 | [2] 0.041 | [3] 0.002 | [4] -0.026 | [5] 0.011 | [6] 0.022 | [7] -0.013 | [8] -0.017 | [9] 0.003 | [10] 0.033

UFSP2 (UniProt Q9NUQ7)
inactive: [1] 0.036 | [2] -0.047 | [3] 0.165 | [4] 0.057 | [5] 0.082 | [6] -0.007 | [7] -0.008 | [8] 0.056 | [9] -0.034 | [10] 0.017

UBE3C (UniProt Q15386)
inactive: [1] 0.001 | [2] 0.029 | [3] 0.022 | [4] -0.025 | [5] 0.027 | [6] -0.029 | [7] 0.024 | [8] 0.045 | [9] -0.022 | [10] 0.003

UPF2 (UniProt Q9HAU5)
inactive: [1] -0.034 | [2] 0.018 | [3] -0.299 | [4] 0.327 | [5] -0.13 | [6] 0.054 | [7] 0.052 | [8] 0.083 | [9] 0.182 | [10] -0.11

Taken from the entries so far (two entries):
URI1 (UniProt O94763)
inactive: [1] -0.012 | [2] -0.01 | [3] -0.104 | [4] -0.033 | [5] 0.014 | [6] 0.012 | [7] 0.031 | [8] -0.036 | [9] 0.012 | [10] -0.097

USP47 (UniProt Q96K76)
inactive: [1] 0.01 | [2] -0.09 | [3] -0.037 | [4] 0.165 | [5] -0.056 | [6] -0.022 | [7] 0.089 | [8] 0.121 | [9] 0.137 | [10] -0.081

(continued)

UQCC2 (UniProt Q9BRT2)
inactive: [1] -0.047 | [2] -0.016 | [3] 0.05 | [4] -0.064 | [5] 0.013 | [6] 0.018 | [7] 0.06 | [8] 0.037 | [9] -0.031 | [10] -0.032

From the supplement of paper PMC10849652
